# Measurements reported in US9872903B2, “Targeting thymidine kinase photosensitizer and pharmaceutical composition and use for cancer treatment thereof” (ZHEJIANG HISUN PHARMACEUTICAL CO., LTD., priority 2012, dated 2018).
# System: in vivo tumor cells of PC3 line
# Test: in vivo fluorescence imaging assay
# Design: species or system mice
# Conditions: 0.5 μmol/kg, images at 4 h, 14 h, 24 h and 48 h, excitation 665 nm, emission 710-720 nm
structure (smiles),measurement,value
"CCCCCCOC(C)c1c(C)c2cc3nc(c4c5[nH]c(cc6nc(cc1[nH]2)C(C)=C6CC)c(C)c5C(=O)C4)C(CCC(=O)OCC1OC(n2cc(C)c(=O)[nH]c2=O)CC1O)C3C (stereo not shown) [Compound 3, 17^3-thymidylyl-3-((1′-n-hexyloxy)ethyl)-3-devinyl-pyropheophorbide]",time after injection of best adsorption/imaging quality,24 h
